# Percent effect of library compounds

Protein sequences, listed by entry. Tags and fused reporters are not part of them. Residues count along the entry.
UniProt I6X8D2, whole entry: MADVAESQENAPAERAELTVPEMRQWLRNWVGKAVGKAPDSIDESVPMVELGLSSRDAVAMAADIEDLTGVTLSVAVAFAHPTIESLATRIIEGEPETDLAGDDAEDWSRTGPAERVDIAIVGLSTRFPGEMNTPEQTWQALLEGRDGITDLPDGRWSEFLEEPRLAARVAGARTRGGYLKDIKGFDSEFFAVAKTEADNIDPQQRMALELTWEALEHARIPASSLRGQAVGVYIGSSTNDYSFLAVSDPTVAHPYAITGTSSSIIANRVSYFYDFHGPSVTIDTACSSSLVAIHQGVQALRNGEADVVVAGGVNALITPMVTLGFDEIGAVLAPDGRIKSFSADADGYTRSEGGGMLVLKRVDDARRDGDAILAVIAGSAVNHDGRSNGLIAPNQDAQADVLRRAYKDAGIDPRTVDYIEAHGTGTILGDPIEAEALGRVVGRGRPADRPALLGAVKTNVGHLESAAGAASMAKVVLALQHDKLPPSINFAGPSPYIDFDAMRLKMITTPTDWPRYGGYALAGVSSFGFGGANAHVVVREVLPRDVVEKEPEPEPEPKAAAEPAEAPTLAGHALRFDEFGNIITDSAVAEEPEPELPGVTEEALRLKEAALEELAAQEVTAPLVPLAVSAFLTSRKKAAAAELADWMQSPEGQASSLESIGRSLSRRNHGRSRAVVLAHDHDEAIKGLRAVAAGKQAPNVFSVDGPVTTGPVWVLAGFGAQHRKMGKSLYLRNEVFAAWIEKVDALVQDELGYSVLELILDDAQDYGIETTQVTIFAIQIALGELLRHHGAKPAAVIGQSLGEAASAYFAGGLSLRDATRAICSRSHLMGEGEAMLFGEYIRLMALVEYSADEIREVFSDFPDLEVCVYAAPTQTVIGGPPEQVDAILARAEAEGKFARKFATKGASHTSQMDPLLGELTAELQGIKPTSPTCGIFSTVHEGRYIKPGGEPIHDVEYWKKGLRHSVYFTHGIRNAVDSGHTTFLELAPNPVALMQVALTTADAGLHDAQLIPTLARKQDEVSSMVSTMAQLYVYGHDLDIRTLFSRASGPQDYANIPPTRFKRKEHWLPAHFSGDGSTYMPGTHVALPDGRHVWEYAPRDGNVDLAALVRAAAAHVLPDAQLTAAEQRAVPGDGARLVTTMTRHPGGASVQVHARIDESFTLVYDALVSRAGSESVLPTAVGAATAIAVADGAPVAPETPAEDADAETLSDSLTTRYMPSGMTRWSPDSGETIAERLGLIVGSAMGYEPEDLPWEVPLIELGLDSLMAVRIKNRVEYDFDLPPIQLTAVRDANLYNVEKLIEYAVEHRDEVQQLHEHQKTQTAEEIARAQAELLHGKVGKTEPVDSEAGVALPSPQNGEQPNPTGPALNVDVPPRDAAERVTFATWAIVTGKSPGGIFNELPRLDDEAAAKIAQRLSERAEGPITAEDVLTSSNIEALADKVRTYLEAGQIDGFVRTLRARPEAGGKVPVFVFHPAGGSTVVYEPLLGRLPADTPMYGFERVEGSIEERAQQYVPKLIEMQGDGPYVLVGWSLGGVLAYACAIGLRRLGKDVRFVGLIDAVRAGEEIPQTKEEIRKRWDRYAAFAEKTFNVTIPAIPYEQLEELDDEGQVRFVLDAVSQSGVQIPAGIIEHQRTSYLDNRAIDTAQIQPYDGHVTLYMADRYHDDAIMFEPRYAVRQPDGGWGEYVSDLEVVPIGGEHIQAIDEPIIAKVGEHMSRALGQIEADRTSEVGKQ
UniProt A4I591, 1-473: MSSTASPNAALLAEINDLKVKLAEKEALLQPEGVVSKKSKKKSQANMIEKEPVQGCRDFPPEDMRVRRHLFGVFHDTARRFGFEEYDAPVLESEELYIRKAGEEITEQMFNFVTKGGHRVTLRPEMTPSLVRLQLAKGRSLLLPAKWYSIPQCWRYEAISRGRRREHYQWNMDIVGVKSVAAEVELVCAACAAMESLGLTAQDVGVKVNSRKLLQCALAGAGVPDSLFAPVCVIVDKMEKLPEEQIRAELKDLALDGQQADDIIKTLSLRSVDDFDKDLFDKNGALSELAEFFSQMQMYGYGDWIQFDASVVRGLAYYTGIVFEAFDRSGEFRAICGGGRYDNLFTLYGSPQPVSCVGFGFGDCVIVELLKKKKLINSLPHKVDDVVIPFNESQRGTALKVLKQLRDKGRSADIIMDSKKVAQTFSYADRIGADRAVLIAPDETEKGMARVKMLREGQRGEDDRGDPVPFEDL
UniProt P9WPC5, whole entry: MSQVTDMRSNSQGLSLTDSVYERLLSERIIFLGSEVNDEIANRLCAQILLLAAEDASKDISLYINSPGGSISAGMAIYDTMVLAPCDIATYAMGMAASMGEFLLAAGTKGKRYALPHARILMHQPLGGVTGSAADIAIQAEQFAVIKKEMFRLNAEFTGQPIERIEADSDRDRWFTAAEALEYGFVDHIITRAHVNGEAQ
UniProt P9WPC3, whole entry partner: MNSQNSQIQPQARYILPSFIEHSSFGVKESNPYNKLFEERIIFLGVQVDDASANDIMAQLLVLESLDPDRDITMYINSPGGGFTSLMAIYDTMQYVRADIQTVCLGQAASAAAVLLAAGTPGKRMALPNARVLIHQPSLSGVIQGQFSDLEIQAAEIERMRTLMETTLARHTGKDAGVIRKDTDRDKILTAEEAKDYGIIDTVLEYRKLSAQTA
UniProt P9WNZ1, whole entry: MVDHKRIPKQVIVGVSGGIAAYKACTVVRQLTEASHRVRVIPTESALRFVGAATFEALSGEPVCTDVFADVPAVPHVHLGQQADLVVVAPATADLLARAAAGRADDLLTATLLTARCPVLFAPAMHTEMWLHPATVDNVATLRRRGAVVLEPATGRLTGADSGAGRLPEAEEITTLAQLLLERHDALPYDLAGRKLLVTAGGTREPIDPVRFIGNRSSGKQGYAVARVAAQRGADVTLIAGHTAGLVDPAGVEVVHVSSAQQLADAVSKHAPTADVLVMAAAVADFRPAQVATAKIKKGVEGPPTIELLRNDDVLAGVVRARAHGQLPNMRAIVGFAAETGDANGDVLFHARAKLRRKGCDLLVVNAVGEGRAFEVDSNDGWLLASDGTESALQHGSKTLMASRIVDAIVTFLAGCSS

Source: ChEMBL document CHEMBL3988442, “University of Dundee, Small-Polar-MMV Screening Library” (2021).

A: 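Enzyme assay of the thioesterase domain of polyketide synthase 13; the read-out is not stated. Target: Polyketide synthase Pks13, Mycobacterium tuberculosis (UniProt I6X8D2). Compounds at 30 µM. The record gives no direction; the compounds picked for IC50 retests had high values, so higher reads as stronger inhibition. About 67,000 compounds were tested under these conditions; 0.46% (about 300) showed 50% or more at least once.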
B: 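Histidine-tRNA ligase, Leishmania infantum (UniProt A4I591). Enzyme assay of histidyl-tRNA synthetase; the read-out is not stated. Concentration: 30 µM. Direction is inferred from retests: higher values go with stronger inhibition. The assay is labelled LdHisRS but filed under L. infantum. Size under these conditions: about 69,000 compounds, about 410 of them at 50% or above in at least one test.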
C: 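Cell assay of Leishmania donovani living inside macrophages; the read-out is not stated. Concentration: 30 µM. Higher reads as stronger inhibition (inferred: compounds with an IC50 in retests scored well above the rest). Size under these conditions: about 69,000 compounds, about 1,000 of them at 50% or above in at least one test.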
D: 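ClpP1P2, Mycobacterium tuberculosis (UniProt P9WPC5 and UniProt P9WPC3). Protease assay of ClpP1P2, read by the AMC dye that it sets free. Concentration: 50 µM. Direction is inferred from only a few compounds that gave an IC50; most scored high, so higher reads as stronger inhibition. Most other retested compounds had strongly negative values. About 69,000 compounds were tested under these conditions; 0.015% (about 10) showed 50% or more at least once.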
E: 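Assay of Toxoplasma gondii numbers, read through their beta-galactosidase reporter with a colour substrate. Tested at 10 µM. The record gives no direction; the compounds picked for IC50 retests had high values, so higher reads as fewer parasites. Size under these conditions: about 67,000 compounds, about 260 of them at 50% or above in at least one test.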
F: 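Coenzyme A biosynthesis protein CoaBC, Mycobacterium tuberculosis (UniProt P9WNZ1). Enzyme assay of CoaBC with a phosphate dye (Biomol Green) read at 650 nm. Concentration: 30 µM. Direction is inferred from only a few compounds that gave an IC50; most scored high, so higher reads as stronger inhibition. Most strong results did not repeat in a second test. Size under these conditions: about 67,000 compounds, about 40 of them at 50% or above in at least one test.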

Results are given as percent effect.
The controls that fix the scale are not given in the record; negative values are as filed.
The compounds are a random part of those screened.
Two or more numbers in one place are separate tests of the same structure; such repeats can differ widely.
A dash means the value is not listed here; it may have been measured.

SMILES,A,B,C,D,E,F
O=C(O)C(F)(F)F.c1cnc(N2CCC3(CC2)CN(CC2CC2)c2ccccc23)nc1,-,-,24.73%,-,0.9504%,-
Cc1cc2nc(C(C)C)cc(N3CCC(Oc4ncccn4)CC3)n2n1,36.95%,20.65%,83.06%,13.85%,11.19%,-2.058%
Cc1cc(C(=O)NCCc2nc3c(s2)CCCC3)n(C)n1,-10.2%,7.447%,29.87%,-5.488%,-1.543%,0.3367%
Cc1cccc(CN2C[C@@H]3[C@@H](C(=O)NCC(C)C)CCS(=O)(=O)[C@@H]3C2)c1,-6%,5.556%,-,-23.91%,-,3.21%
O=c1oc(-c2ccc(F)cc2)nn1CCS(=O)(=O)c1ccccc1,2.562%,11.29%,-5.388%,1.309%,10.75%,2.445%
O=C(c1ccccn1)N1CCC2(CC1)COC(COc1cccnc1)C2 (configuration not stated),-23.01%,16.36%,6.851%,7.909%,1.13%,0%
O=C(CNc1cccc(CC(F)(F)F)c1)NCc1ccco1,-27.4%,15.38%,7.142%,-6.066%,0.2268%,9.2%
[H][C@@]12C[C@@H](c3nnc(C4CC4)o3)O[C@]1([H])CN(C(=O)c1ccsc1)C2,-,-,15.43%,-,-3.548%,-
NC(=O)NC1CCN(Cc2ccccc2OCC(F)(F)F)CC1,-39.93%,1.036%,6.737%,-2.445%,6.655%,-3.949%
Cc1ccccc1OC1(C(=O)O)CCN(C(=O)CCc2ccco2)CC1,5.481%,6.557%,10.18%,1.269%,6.693%,-6.34%
CS(=O)(=O)Nc1ccn(Cc2cccc(F)c2)n1,-9.616%,3.448%,-1.962%,-9.791%,2.357%,0.2309%
CCCn1c(N2CCCCC2)nc2c(C)nn(C)c2c1=O,14.01%,-1.724%,-55.83%,7.525%,85.32%,-39.49%
COc1ccc(OCC(=O)NS(=O)(=O)c2ccc(Cl)s2)cc1,-31.51%,1.587%,-10.59%,-3.745%,4.071%,2.917%
CNC(=O)NC(=O)CN1CCN(CC(F)(F)F)CC1(C)C,-7.453%,4.444%,8.732%,-5.7%,-2.806%,-2.451%
COc1ccc(NC(C)C(=O)N2CCN(c3ccccc3)CC2)cn1 (configuration not stated),31.36%,28.77%,21.38%,12.96%,-3.413%,2.244%
CCCN1CC2(CCN(c3ccc(C(C)=O)cn3)CC2)CC1C(=O)O (configuration not stated),-5.768%,14.88%,-26.89%,5.499%,-4.208%,6.117%
CC(C)C(C)(C#N)NC(=O)Cn1nnc(-c2cc3ccccc3o2)n1 (configuration not stated),-16.15%,15.18%,-37.03%,1.056%,1.447%,-1.587%
Cc1c(C(=O)NC2(C#N)CCCC2)nnn1-c1ccccc1Cl,-18.97%,32.35%,18.45%,7.654%,-3.231%,6.925%
[H][C@@]12CCN(C(=O)c3cscn3)[C@]1([H])CN(C(=O)NC1CC1)C2,-,-,15.11%,-,21.8%,-
[H][C@]12CN(Cc3c[nH]nc3-c3ccccc3)C[C@]1([H])N(CCOC)C(=O)CO2,-,-,5.18%,-,12.88%,-
O=C(O)C(F)(F)F.[H][C@@]12CCN(Cc3nccs3)[C@]1([H])C[C@@H](C(=O)NCC1CCOCC1)O2,-,-,-3.68%,-,1.611%,-
CC(C)S(=O)(=O)N1C[C@H]2OC(=O)N(CCc3cccc(Cl)c3)[C@H]2C1,-34.37%,3.125%,-,-0.7648%,-,-1.285%
CCn1c(CN2CCC(O)(C(=O)OC)CC2)nc2c(F)cccc21,-20.12%,4%,-8.876%,-4.27%,-8.469%,-5.319%
COc1cc(CCC(=O)N2CCC(c3cc4ncc(C)nc4[nH]3)C2)on1 (configuration not stated),47.09%,9.79%,-19.98%,-6.98%,-3.206%,8.475%
CN(Cc1nnc2ccccn12)C(=O)CCNC(=O)C(C)(C)C,-11.38%,26.76%,-37.48%,4.455%,-6.149%,-
COCCNC(=O)Cn1c(C)cc2nc(SC)n(CC(C)C)c(=O)c21,-11.43%,16.95%,22.07%,0.6476%,-1.793%,-4.141%
COc1ccccc1CC(=O)N1CC[C@H](O)[C@]2(CCCO2)C1,18.12%,18.84%,23.22% and 15.57%,-6.314%,4.97%,3.155%
COc1ccc(F)c(NCC(C)(C)S(C)(=O)=O)c1,-10.12%,13.7%,9.976%,-7.619%,11.08%,15.4%
CC(=O)N1CCn2c(-c3ccccc3)cnc2C12CCNCC2.O=C(O)C(F)(F)F.O=C(O)C(F)(F)F,-,-,3.725%,-,-9.683%,-
Cc1nc(C)n(C2CCCN(C(=O)c3ccc(OC(C)C)nc3)C2)n1 (configuration not stated),-16.87%,11.01%,11.99%,-14.9%,-6.575%,0.8717%
COc1ccc(N2CCOCC3(CCCN(c4cnccn4)C3)C2)cc1 (configuration not stated),19.21%,10.53%,18.15%,14.85%,2.044%,3.462%
Cc1nc(CN2C(=O)COC3(CCN(C)CC3)C2C)cs1.O=C(O)C(F)(F)F (configuration not stated),-,-,-35.05%,-,-27.18%,-
CNC(=O)c1ccnc(CC2COc3c(cccc3OC)C2)c1 (configuration not stated),-7.88%,13.25%,-40.6%,0.3336%,-8.98%,4.893%
CC(C)c1cc(C(=O)N2CCN(Cc3ccc(C#N)cc3)CC2)n[nH]1,-36.19%,19.67%,41.64%,2.052%,2.493%,8.155%
CCC(=O)N1CCCC(Cn2cc(-c3ccc(F)cc3)nn2)C1 (configuration not stated),-11.09%,18.37%,25.06%,-1.244%,9.722%,5.741%
O=C(c1ccccn1)N1CC[C@@H](N2CCOCC2)[C@@H]1Cc1ccccc1,2.623%,7.273%,26%,4.984%,5.648%,-0.4202%
Cc1nc(CO[C@H]2CN(C(=O)c3cnoc3C)[C@@H]3COC[C@H]23)cs1,-14.82%,10%,-,-6.017%,-,0.9852%
CCC(=O)NCc1ccccc1Cn1ccnc1,-16.6%,8.065%,45.2%,5.652%,12.44%,-3.667%
CCN(CC)C(=O)c1ccc(Cl)c(NC(=O)c2cc[nH]n2)c1,-34.65%,2.797%,6.292%,17.5%,-6.043%,6.173%
CC(C)c1csc(C(=O)N2CCCC(Cn3cc(CO)nn3)C2)n1 (configuration not stated),-2.181%,14.52%,25.65%,-11.45%,10.8%,-7.275%
O=C(O)C(F)(F)F.O=C(O)C(F)(F)F.O=C1CC(c2ccncc2)C2(CCN(CCc3ccccc3)CC2)N1 (configuration not stated),-,-,-12.96%,-,-0.4162%,-
CCc1cc(CNC(=O)N(C2CC2)C(C)c2ccco2)[nH]n1 (configuration not stated),-10.14%,6.452%,4.895%,-3.239%,-4.933%,0.1209%
COCCCS(=O)(=O)N(Cc1cccc(C)c1)Cc1ccccn1,-16.74%,12.24%,10.95%,20.54%,9.588%,0.6889%
CCC1(CC)Cc2ccccc2-c2nc(CN(C)C)nc(O)c21,-41.09%,17.14%,23.32%,-2.063%,3.871%,4.453%
COC(=O)NCC1CCC2(CCNCC2)O1 (configuration not stated),-19.11%,19.42%,-,0.4128%,-,1.527%
c1ccc2c(c1)CC(n1ccnc1-c1cc3n(n1)CCCNC3)CO2 (configuration not stated),-6.739%,17.5%,-0.02113%,-6.095%,-16.74%,7.578%
Cc1cnc(NC2CCN(CC(=O)Nc3ccccc3)CC2)nc1C,14.94%,-14.67%,18.37%,-4.153%,-0.8401%,-10.33%
CN(C)c1ncnc2c1CCN(Cc1nccs1)CC2.O=C(O)C(F)(F)F,-,-,-2.312%,-,7.307%,-
[H][C@@]12CCCN1C[C@H](Cc1ccccc1)N(Cc1cnn(CCC)c1C)C2,-,-,17.12% and 4.366%,-,-5.98%,-
CC1(C)CN(CC(=O)NCc2ccccc2F)C[C@]1(C)O,-27.9%,4.819%,15.59%,-10.56%,-4.421%,0.9709%
O=C(NC[C@H]1OC[C@@H](NCc2ccccn2)[C@@H]1O)N1CCOCC1,-34.09%,20.27%,31.05%,-9.61%,12.41%,4.636%
CCc1ccccc1OCCN(C)C(=O)CCN1CCCCO1,-9.604%,8.889%,20.67%,-2.525%,-10.47%,-2.92%
CCN(CCO)C(=O)C1CCC(=O)N(CCc2cccc(F)c2)C1 (configuration not stated),2.981%,4.762%,29.08%,-13.57%,18.69%,2.981%
O=C(Cc1ccc2c(c1)OCCO2)NC1CCCC1,-14.41%,2.74%,0.1534%,6.247%,1.165%,-1.687%
COC(=O)N1CCC(Nc2ccc(Cl)c(C#N)n2)CC1,31.9%,16.81%,-7.311%,-417.6%,11.63%,-3.037%
Cc1cccc(Cc2nc3c([nH]2)CCCNC3=O)c1,-37.81%,17.95%,12.46%,3.581%,-7.465%,4.622%
CCCNC(=O)c1sc(Nc2ccc(Cl)cn2)nc1C,-26.67%,11.65%,-0.5954%,13.37%,-3.825%,2.826%
Cn1cccc1C(=O)N1C[C@H]2CN(Cc3cccs3)C[C@H]2C1,-34.06%,7.692%,-,-14.96%,-,4.762%

The first 6 entries again:

* O=C(O)C(F)(F)F.c1cnc(N2CCC3(CC2)CN(CC2CC2)c2ccccc23)nc1 | C: 24.73%; E: 0.9504%
* Cc1cc2nc(C(C)C)cc(N3CCC(Oc4ncccn4)CC3)n2n1 | A: 36.95%; B: 20.65%; C: 83.06%; D: 13.85%; E: 11.19%; F: -2.058%
* Cc1cc(C(=O)NCCc2nc3c(s2)CCCC3)n(C)n1 | A: -10.2%; B: 7.447%; C: 29.87%; D: -5.488%; E: -1.543%; F: 0.3367%
* Cc1cccc(CN2C[C@@H]3[C@@H](C(=O)NCC(C)C)CCS(=O)(=O)[C@@H]3C2)c1 | A: -6%; B: 5.556%; D: -23.91%; F: 3.21%
* O=c1oc(-c2ccc(F)cc2)nn1CCS(=O)(=O)c1ccccc1 | A: 2.562%; B: 11.29%; C: -5.388%; D: 1.309%; E: 10.75%; F: 2.445%
* O=C(c1ccccn1)N1CCC2(CC1)COC(COc1cccnc1)C2 (configuration not stated) | A: -23.01%; B: 16.36%; C: 6.851%; D: 7.909%; E: 1.13%; F: 0%